Experimental data from patent publication US6132944A, “Photographic element containing high dye-yield couplers” (Eastman Kodak Company, priority 1999, dated 2000).

Legend:
[1] = single layer coating sensitometry, C41 process: contrast (gamma) and Dmax vs. reference coupler C-1
Experimental: Test samples were prepared, processed and tested as follows.
The formats for single layer samples were as follows (amounts in g/m2 unless otherwise specified).
The image couplers were, typically, dispersed in di-n-butyl phthalate. Coated strips were exposed using a conventional step-wedge and processed using the Kodak Flexicolor C41 process.
Couplers were coated as follows:
Format 1: Comp-2 and Comp-3
Format 2: Comp-5 and Comp-6
Format 3: All other couplers
In each case, the high dye-yield couplers were coated at the lower laydown of those given for the format.
The samples were tested as shown in the footnotes of Table I, and the results of the testing are as shown.
***(coupler contrast/C1 reference coupler contrast) x 100; all examples
****Coupler Dmax/Dmax of reference coupler C1
(a)Comp1 and reference coupler C1 were each coated at 1.3 mmoles/m^2
(b)Comp2 and Comp3 were each coated at 0.20 mmoles/m^2 and reference
(c)Comp5 and Comp6 were each coated at 0.2 mmoles/m^2 and reference
(d)Inv1 through Inv10 were all coated at 0.27 mmoles/m^2 and compared

[2] = Dmax (sensitometry) and azomethine dye in Dmax (HPLC), standard process; conditions: for unreacted coupler in the Dmax region: in words
Experimental: Samples of each element were imagewise exposed through a graduated density test object and processed at 40° C., employing a color developing solution as described below, then bleached, fixed, and dried to produce yellow dye images.
A series of experiments were conducted in order to determine the factors involved in the relatively low Dmax values observed for carboxylic acid solubilized HDY couplers as compared to sulfonamide solubilized HDY couplers. On the basis of these experiments, it was concluded that the carboxylic acid solubilized couplers yielded dyes subject to washout under neutral conditions. Table 1 contains a list of Dmax values (sensitometry) for a series of HDY couplers and the relative amounts of azomethine dye (HPLC). In each case the relative yield of carboxylic acid solubilized dye is lower than that of the sulfonamide solubilized dye.
^a Standard exposure and processing conditions are given in the
^c Relative amounts of azomethine dye based on HPLC analysis.

[3] = azomethine dye washout after water rinse (20 min), accelerated process; conditions: 20 min rinse; for % Azomethine Dye lost: HPLC
Experimental: As a consequence, the carboxylic acid solubilized dye could possibly be subject to washout during bleach, fix, or rinse steps. In order to test this hypothesis, a series of coated film strips were processed under accelerated conditions (see Table III) to minimize any potential dye loss. The strips were then subject to rinse (water) for 20 min. The sensitometric change in the Dmax value after rinse in addition to the % dye lost during rinse are contained in Table VI. | ^a Processed under accelerated conditions, see Table III | ^c Given by the difference: Dmax(20 min rinse) Dmax(no rinse). | ^d Determined by HPLC analysis.

[4] = Format 3, 0.27 mmoles/m^2, C-1 at 0.54 mmoles/m^2, dibutyl phthalate
[5] = Format 4, Comp-1 and C-1 each at 1.3 mmoles/m^2, dibutyl phthalate
[6] = Format 3, 0.27 mmoles/m^2, C-1 at 0.54 mmoles/m^2, oleyl alcohol
[7] = Format 2, 0.2 mmoles/m^2, C-1 at 0.4 mmoles/m^2, dibutyl phthalate
[8] = Format 1, 0.20 mmoles/m^2, C-1 at 0.40 mmoles/m^2, dibutyl phthalate

CCN(C(=O)OC(C(=O)Nc1cc(NS(=O)(=O)c2c(NS(C)(=O)=O)ccc3ccccc23)ccc1Cl)C(=O)c1ccc(OC)cc1)c1ccc(C=C(C#N)c2nc3cc(C(C)(C)CC(C)(C)C)ccc3o2)c(C)c1 (stereo not shown) [Inv-4]
% gamma (vs. C-1) [1, 4]: 150%
Dmax/Dmax (vs. C-1) [1, 4]: 1.52

Cc1cc(N(C(=O)OC(C(=O)Nc2cc(NS(=O)(=O)c3ccc(NS(C)(=O)=O)cc3O)ccc2Cl)C(=O)C(C)(C)C)C2CCCC2)ccc1C=C(C#N)c1nc2cc(C(C)(C)CC(C)(C)C)ccc2o1 (stereo not shown) [Inv-6]
% gamma (vs. C-1) [1, 4]: 168%
Dmax/Dmax (vs. C-1) [1, 4]: 1.59

CCCCCCCCCCCCCCCCS(=O)(=O)Nc1ccc(Cl)c(NC(=O)C(OC(=O)N(CC)c2ccc(N=Nc3ccc(C(=O)OCCCCCCCCCCCC)cc3)cc2)C(=O)C(C)(C)C)c1 (stereo not shown) [Comp-1]
% gamma (vs. C-1) [1, 5]: 38%
Dmax/Dmax (vs. C-1) [1, 5]: 0.62

Cc1cc(N(C(=O)OC(C(=O)Nc2cc(NC(=O)CCC(=O)O)ccc2Cl)C(=O)C(C)(C)C)C2CCCC2)ccc1C=C(C#N)c1nc2cc(C(C)(C)CC(C)(C)C)ccc2o1 (stereo not shown) [Comp-15]
Azomethine dye in Dmax (HPLC), relative amount ([2]; high boiling solvent Sol. 6): 0.21
Dmax ([2]; high boiling solvent Sol. 6): 1.26
% Azomethine Dye lost ([3]; Sol. 6): 51%
Blue Dmax change ([3]; Sol. 6): -0.21

Cc1cc(N(C(=O)OC(C(=O)Nc2cc(NC(=O)c3ccccc3C(=O)O)ccc2Cl)C(=O)C(C)(C)C)C2CCCC2)ccc1C=C(C#N)c1nc2cc(C(C)(C)CC(C)(C)C)ccc2o1 (stereo not shown) [Comp-14]
Azomethine dye in Dmax (HPLC), relative amount ([2]; high boiling solvent Sol. 6): 0.26
Dmax ([2]; high boiling solvent Sol. 6): 1.02
% Azomethine Dye lost ([3]; Sol. 6): 39%
Blue Dmax change ([3]; Sol. 6): -0.13

CCC(C)(C)c1cc(C(C)(C)CC)c2oc(C(C#N)=Cc3ccc(N(C(=O)OC(C(=O)Nc4cc(NS(=O)(=O)c5ccc(NS(C)(=O)=O)c6ccccc56)ccc4Cl)C(=O)C(C)(C)C)C4CCCC4)cc3C)nc2c1 (stereo not shown) [Inv-44]
% Azomethine Dye lost ([3]; Sol. 1): 4%
Blue Dmax change ([3]; Sol. 1): -0.03

CCN(C(=O)OC(C(=O)Nc1cc(NS(=O)(=O)c2ccc(NS(C)(=O)=O)cc2)ccc1Cl)C(=O)c1ccc(OC)cc1)c1ccc(C=C(C#N)c2nc3cc(C(C)(C)CC(C)(C)C)ccc3o2)c(C)c1 (stereo not shown) [Inv-7]
% gamma (vs. C-1) [1, 4]: 183%
Dmax/Dmax (vs. C-1) [1, 4]: 1.56

Cc1cc(N(C(=O)OC(C(=O)Nc2cc(NS(=O)(=O)c3ccc(O)c(NS(C)(=O)=O)c3)ccc2Cl)C(=O)C(C)(C)C)C2CCCC2)ccc1C=C(C#N)c1nc2cc(C(C)(C)CC(C)(C)C)ccc2o1 (stereo not shown) [Inv-1]
% gamma (vs. C-1) [1, 4]: 145%
Dmax/Dmax (vs. C-1) [1, 4]: 1.40

CCN(C(=O)OC(C(=O)Nc1cc(NS(=O)(=O)c2ccc(NS(C)(=O)=O)c3ccccc23)ccc1Cl)C(=O)c1ccc(OC)cc1)c1ccc(C=C(C#N)c2nc3cc(C(C)(C)CC(C)(C)C)ccc3o2)c(C)c1 (stereo not shown) [Inv-5]
% gamma (vs. C-1) [1, 4]: 199%
Dmax/Dmax (vs. C-1) [1, 4]: 1.68

Cc1cc(N(C(=O)OC(C(=O)Nc2cc(NS(=O)(=O)c3cccc(C(=O)O)c3)ccc2Cl)C(=O)C(C)(C)C)C2CCCC2)ccc1C=C(C#N)c1nc2cc(C(C)(C)CC(C)(C)C)ccc2o1 (stereo not shown) [Comp-13]
Azomethine dye in Dmax (HPLC), relative amount ([2]; high boiling solvent Sol. 6): 0.51
Dmax ([2]; high boiling solvent Sol. 6): 1.35
unreacted coupler in the Dmax region [2]: contains no unreacted coupler in the Dmax region
% Azomethine Dye lost ([3]; Sol. 6): 13%
Blue Dmax change ([3]; Sol. 6): -0.11

COc1ccc(C(=O)C(OC(=O)N(c2ccc(C=C(C#N)c3nc4cc(C(C)(C)CC(C)(C)C)ccc4o3)c(C)c2)C2CCCC2)C(=O)Nc2cc(NS(=O)(=O)c3ccccc3NS(C)(=O)=O)ccc2Cl)cc1 (stereo not shown) [Inv-10]
% gamma (vs. C-1) [1, 6]: 204%
Dmax/Dmax (vs. C-1) [1, 6]: 1.84

COc1ccc(C(=O)C(OC(=O)N(c2ccc(C=C(C#N)c3nc4cc(C(C)(C)CC(C)(C)C)ccc4o3)c(C)c2)C2CCCC2)C(=O)Nc2cc(NS(=O)(=O)c3ccc(O)cc3)ccc2Cl)cc1 (stereo not shown) [Inv-3]
% gamma (vs. C-1) [1, 4]: 166%
Dmax/Dmax (vs. C-1) [1, 4]: 1.59

Cc1cc(N(C(=O)OC(C(=O)Nc2cc(NS(=O)(=O)c3cccc(NS(C)(=O)=O)c3)ccc2Cl)C(=O)C(C)(C)C)C2CCCC2)ccc1C=C(C#N)c1nc2cc(C(C)(C)CC(C)(C)C)ccc2o1 (stereo not shown) [Inv-9]
% gamma (vs. C-1) [1, 4]: 110%
Dmax/Dmax (vs. C-1) [1, 4]: 1.39
Azomethine dye in Dmax (HPLC), relative amount ([2]; high boiling solvent Sol. 6): 0.54
Dmax ([2]; high boiling solvent Sol. 6): 1.35
unreacted coupler in the Dmax region [2]: has unreacted coupler in the Dmax region
% Azomethine Dye lost ([3]; Sol. 6): 0%
Blue Dmax change ([3]; Sol. 6): -0.02

CCCCN(C(=O)OC(C(=O)Nc1ccccc1OC)C(=O)c1cccc(NS(=O)(=O)c2ccc(C)cc2)c1)c1ccc(C=C(C#N)c2nc3cc(C(C)(C)CC(C)(C)C)ccc3o2)c(C)c1 (stereo not shown) [Comp-6]
% gamma (vs. C-1) [1, 7]: 82%
Dmax/Dmax (vs. C-1) [1, 7]: 1.21

Cc1cc(N(C(=O)OC(C(=O)Nc2cc(NS(=O)(=O)c3cc(NS(C)(=O)=O)ccc3NS(C)(=O)=O)ccc2Cl)C(=O)C(C)(C)C)C2CCCC2)ccc1C=C(C#N)c1nc2cc(C(C)(C)CC(C)(C)C)ccc2o1 (stereo not shown) [Inv-26]
% Azomethine Dye lost ([3]; Sol. 6): 3%
Blue Dmax change ([3]; Sol. 6): -0.04

CCCCCCCCCCCCCCCCNS(=O)(=O)c1ccc(Cl)c(NC(=O)C(OC(=O)N(CCCC)c2ccc(C=C(C#N)c3nc4ccccc4o3)c(C)c2)C(=O)c2ccc(OC)cc2)c1 (stereo not shown) [Comp-2]
% gamma (vs. C-1) [1, 8]: 14%
Dmax/Dmax (vs. C-1) [1, 8]: 0.24

Cc1cc(N(C(=O)OC(C(=O)Nc2cc(NS(=O)(=O)c3ccc(O)cc3)ccc2Cl)C(=O)C(C)(C)C)C2CCCC2)ccc1C=C(C#N)c1nc2cc(C(C)(C)CC(C)(C)C)ccc2o1 (stereo not shown) [Comp-21]
% gamma (vs. C-1) [1, 4]: 98%
Dmax/Dmax (vs. C-1) [1, 4]: 1.18

CCCCCCCCCCCCCCCCNS(=O)(=O)c1ccc(Cl)c(NC(=O)C(OC(=O)N(CCCCCCCCCCCC)c2ccc(C=C(C#N)c3nc4ccccc4o3)c(C)c2)C(=O)c2ccc(OC)cc2)c1 (stereo not shown) [Comp-3]
% gamma (vs. C-1) [1, 8]: 29%
Dmax/Dmax (vs. C-1) [1, 8]: 0.44

CCC(C)(C)c1cc(C(C)(C)CC)c2oc(C(C#N)=Cc3ccc(N(C(=O)OC(C(=O)Nc4cc(NS(=O)(=O)c5ccc(NS(C)(=O)=O)cc5NS(C)(=O)=O)ccc4Cl)C(=O)C(C)(C)C)C4CCCC4)cc3C)nc2c1 (stereo not shown) [Inv-42]
Azomethine dye in Dmax (HPLC), relative amount ([2]; Sol. 3 (50%): Sol. 4 (50%)): 0.76
Dmax ([2]; Sol. 3 (50%): Sol. 4 (50%)): 1.44
Azomethine dye in Dmax (HPLC), relative amount ([2]; high boiling solvent Sol. 2): 0.78
Dmax ([2]; high boiling solvent Sol. 2): 1.51
Azomethine dye in Dmax (HPLC), relative amount ([2]; high boiling solvent Sol. 5): 0.68
Dmax ([2]; high boiling solvent Sol. 5): 1.42
% Azomethine Dye lost ([3]; Sol. 2): 0%
% Azomethine Dye lost ([3]; Sol. 3 (50%): Sol. 4 (50%)): 3%
% Azomethine Dye lost ([3]; Sol. 5): 1%
Blue Dmax change ([3]; Sol. 2): -0.02
Blue Dmax change ([3]; Sol. 3 (50%): Sol. 4 (50%)): -0.02
Blue Dmax change ([3]; Sol. 5): 0.00

CCN(C(=O)OC(C(=O)Nc1cc(NS(=O)(=O)c2ccccc2NS(C)(=O)=O)ccc1Cl)C(=O)c1ccc(OC)cc1)c1ccc(C=C(C#N)c2nc3cc(C(C)(C)CC(C)(C)C)ccc3o2)c(C)c1 (stereo not shown) [Inv-8]
% gamma (vs. C-1) [1, 4]: 158%
Dmax/Dmax (vs. C-1) [1, 4]: 1.53

CCCCCCCN(C(=O)OC(C(=O)Nc1ccccc1OC)C(=O)c1cccc(NS(=O)(=O)c2ccc(C)cc2)c1)c1ccc(C=C(C#N)c2nc3ccc(C)cc3o2)c(C)c1 (stereo not shown) [Comp-5]
% gamma (vs. C-1) [1, 7]: 69%
Dmax/Dmax (vs. C-1) [1, 7]: 1.07
